The supplement of paper PMC10849652
The list shows a part of the results.

Amino acid sequences for entries named in this document (tags omitted). A change or cut given only in a name is not applied to a line headed by its entry.
UniProt Q9Y2G8: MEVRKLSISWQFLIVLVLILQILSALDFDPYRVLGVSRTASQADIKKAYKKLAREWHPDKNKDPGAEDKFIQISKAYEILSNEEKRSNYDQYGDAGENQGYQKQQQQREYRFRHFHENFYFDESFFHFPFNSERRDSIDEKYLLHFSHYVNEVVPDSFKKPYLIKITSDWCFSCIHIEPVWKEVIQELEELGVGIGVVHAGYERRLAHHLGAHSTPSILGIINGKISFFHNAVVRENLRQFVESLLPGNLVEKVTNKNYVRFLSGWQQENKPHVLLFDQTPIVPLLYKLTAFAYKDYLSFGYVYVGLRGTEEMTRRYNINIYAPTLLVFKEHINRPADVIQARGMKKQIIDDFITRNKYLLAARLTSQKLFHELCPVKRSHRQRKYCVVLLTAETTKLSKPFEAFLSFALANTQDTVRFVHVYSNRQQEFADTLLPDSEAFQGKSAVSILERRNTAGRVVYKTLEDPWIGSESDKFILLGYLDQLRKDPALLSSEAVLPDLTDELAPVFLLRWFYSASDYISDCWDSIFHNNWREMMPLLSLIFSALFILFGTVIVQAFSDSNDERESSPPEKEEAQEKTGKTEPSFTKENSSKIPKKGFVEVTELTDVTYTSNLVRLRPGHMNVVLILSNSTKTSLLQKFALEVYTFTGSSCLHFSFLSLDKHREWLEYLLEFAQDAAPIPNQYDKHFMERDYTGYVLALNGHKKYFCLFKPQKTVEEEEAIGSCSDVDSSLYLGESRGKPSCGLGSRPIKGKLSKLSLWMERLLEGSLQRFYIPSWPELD
UniProt Q7Z3D6: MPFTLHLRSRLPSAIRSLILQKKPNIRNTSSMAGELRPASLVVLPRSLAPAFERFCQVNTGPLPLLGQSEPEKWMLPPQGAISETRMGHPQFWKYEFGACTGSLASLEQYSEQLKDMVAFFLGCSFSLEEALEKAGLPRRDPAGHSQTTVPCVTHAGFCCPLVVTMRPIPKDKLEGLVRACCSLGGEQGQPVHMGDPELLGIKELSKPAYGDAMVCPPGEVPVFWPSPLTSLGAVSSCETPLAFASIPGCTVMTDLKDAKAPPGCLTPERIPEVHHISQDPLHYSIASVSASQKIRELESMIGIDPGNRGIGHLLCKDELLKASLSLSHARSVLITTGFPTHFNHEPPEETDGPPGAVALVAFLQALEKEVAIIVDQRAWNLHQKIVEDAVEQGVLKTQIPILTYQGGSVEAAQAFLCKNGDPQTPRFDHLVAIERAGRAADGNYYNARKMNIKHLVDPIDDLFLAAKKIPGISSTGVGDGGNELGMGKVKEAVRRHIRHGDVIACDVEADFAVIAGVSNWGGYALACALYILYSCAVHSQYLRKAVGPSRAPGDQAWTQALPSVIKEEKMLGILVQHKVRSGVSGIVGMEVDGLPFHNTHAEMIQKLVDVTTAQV
UniProt Q96GE9: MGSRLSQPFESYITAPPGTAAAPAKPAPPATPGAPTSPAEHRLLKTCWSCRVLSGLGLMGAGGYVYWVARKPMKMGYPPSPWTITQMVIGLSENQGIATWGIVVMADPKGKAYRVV
UniProt Q86XP1: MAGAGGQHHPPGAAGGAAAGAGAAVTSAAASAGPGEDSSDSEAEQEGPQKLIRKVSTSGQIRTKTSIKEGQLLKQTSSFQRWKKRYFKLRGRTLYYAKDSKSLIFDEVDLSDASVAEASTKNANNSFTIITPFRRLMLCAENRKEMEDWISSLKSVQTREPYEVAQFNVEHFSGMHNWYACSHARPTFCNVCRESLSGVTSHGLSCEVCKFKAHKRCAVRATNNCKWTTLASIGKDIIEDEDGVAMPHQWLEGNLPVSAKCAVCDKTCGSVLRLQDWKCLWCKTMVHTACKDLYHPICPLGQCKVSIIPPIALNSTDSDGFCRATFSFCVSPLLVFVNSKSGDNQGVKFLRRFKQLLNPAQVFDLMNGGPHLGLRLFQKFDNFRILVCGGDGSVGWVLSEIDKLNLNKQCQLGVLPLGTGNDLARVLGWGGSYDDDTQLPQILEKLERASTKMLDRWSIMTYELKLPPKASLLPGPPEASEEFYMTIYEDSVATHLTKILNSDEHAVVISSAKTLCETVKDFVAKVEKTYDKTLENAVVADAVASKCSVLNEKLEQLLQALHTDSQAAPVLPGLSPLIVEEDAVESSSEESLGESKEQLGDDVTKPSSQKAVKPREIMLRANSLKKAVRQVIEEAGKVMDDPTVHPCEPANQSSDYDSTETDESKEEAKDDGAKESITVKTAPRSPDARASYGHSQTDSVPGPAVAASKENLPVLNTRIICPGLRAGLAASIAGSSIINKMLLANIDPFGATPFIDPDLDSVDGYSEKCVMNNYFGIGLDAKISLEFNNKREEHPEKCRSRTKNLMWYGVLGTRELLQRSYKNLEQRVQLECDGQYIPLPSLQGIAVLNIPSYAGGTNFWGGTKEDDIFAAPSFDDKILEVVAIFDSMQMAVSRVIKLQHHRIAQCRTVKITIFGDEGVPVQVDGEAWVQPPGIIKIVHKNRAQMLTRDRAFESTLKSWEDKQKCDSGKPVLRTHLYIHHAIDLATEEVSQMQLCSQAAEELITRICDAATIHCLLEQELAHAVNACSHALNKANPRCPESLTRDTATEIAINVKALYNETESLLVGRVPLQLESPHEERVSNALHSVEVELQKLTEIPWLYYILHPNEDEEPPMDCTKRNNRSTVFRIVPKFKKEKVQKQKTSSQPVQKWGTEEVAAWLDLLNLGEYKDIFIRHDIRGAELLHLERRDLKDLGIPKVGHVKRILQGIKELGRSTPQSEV
UniProt Q8N5I4: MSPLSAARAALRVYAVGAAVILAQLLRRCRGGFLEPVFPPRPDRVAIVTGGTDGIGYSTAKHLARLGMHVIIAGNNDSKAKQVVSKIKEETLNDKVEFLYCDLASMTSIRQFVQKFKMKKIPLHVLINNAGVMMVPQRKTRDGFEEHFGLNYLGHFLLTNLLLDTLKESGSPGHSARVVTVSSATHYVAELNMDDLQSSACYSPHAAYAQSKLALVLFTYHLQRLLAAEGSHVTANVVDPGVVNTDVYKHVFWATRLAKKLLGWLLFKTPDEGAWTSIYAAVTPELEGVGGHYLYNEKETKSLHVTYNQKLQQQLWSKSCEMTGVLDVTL
UniProt Q14147: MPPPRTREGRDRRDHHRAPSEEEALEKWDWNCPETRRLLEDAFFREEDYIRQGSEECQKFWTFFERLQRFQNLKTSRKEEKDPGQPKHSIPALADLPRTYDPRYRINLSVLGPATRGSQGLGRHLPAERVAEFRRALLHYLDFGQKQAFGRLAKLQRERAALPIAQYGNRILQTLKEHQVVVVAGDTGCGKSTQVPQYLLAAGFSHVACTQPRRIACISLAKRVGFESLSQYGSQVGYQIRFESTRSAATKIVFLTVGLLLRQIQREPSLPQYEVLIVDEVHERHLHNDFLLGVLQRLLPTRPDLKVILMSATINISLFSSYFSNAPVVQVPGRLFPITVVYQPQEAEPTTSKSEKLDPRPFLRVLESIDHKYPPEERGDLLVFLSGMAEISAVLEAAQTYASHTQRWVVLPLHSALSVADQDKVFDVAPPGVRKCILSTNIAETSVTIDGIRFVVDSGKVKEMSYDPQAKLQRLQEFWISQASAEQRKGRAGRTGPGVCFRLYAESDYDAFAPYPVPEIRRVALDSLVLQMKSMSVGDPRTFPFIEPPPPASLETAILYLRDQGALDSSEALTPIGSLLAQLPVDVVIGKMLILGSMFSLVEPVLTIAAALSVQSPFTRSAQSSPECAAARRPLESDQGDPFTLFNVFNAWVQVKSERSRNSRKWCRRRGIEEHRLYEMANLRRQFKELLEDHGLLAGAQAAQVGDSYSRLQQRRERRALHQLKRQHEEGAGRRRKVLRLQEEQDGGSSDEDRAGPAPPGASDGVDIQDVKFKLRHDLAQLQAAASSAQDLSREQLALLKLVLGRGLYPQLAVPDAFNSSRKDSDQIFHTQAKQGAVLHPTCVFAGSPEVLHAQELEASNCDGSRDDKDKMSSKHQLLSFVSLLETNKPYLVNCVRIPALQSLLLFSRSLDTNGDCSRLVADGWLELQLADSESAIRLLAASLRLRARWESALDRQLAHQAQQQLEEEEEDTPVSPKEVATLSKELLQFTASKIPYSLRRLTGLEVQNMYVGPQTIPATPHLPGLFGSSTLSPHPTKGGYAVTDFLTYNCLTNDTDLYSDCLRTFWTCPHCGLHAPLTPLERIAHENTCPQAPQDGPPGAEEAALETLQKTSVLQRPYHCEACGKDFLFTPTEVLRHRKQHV
UniProt Q96HP0: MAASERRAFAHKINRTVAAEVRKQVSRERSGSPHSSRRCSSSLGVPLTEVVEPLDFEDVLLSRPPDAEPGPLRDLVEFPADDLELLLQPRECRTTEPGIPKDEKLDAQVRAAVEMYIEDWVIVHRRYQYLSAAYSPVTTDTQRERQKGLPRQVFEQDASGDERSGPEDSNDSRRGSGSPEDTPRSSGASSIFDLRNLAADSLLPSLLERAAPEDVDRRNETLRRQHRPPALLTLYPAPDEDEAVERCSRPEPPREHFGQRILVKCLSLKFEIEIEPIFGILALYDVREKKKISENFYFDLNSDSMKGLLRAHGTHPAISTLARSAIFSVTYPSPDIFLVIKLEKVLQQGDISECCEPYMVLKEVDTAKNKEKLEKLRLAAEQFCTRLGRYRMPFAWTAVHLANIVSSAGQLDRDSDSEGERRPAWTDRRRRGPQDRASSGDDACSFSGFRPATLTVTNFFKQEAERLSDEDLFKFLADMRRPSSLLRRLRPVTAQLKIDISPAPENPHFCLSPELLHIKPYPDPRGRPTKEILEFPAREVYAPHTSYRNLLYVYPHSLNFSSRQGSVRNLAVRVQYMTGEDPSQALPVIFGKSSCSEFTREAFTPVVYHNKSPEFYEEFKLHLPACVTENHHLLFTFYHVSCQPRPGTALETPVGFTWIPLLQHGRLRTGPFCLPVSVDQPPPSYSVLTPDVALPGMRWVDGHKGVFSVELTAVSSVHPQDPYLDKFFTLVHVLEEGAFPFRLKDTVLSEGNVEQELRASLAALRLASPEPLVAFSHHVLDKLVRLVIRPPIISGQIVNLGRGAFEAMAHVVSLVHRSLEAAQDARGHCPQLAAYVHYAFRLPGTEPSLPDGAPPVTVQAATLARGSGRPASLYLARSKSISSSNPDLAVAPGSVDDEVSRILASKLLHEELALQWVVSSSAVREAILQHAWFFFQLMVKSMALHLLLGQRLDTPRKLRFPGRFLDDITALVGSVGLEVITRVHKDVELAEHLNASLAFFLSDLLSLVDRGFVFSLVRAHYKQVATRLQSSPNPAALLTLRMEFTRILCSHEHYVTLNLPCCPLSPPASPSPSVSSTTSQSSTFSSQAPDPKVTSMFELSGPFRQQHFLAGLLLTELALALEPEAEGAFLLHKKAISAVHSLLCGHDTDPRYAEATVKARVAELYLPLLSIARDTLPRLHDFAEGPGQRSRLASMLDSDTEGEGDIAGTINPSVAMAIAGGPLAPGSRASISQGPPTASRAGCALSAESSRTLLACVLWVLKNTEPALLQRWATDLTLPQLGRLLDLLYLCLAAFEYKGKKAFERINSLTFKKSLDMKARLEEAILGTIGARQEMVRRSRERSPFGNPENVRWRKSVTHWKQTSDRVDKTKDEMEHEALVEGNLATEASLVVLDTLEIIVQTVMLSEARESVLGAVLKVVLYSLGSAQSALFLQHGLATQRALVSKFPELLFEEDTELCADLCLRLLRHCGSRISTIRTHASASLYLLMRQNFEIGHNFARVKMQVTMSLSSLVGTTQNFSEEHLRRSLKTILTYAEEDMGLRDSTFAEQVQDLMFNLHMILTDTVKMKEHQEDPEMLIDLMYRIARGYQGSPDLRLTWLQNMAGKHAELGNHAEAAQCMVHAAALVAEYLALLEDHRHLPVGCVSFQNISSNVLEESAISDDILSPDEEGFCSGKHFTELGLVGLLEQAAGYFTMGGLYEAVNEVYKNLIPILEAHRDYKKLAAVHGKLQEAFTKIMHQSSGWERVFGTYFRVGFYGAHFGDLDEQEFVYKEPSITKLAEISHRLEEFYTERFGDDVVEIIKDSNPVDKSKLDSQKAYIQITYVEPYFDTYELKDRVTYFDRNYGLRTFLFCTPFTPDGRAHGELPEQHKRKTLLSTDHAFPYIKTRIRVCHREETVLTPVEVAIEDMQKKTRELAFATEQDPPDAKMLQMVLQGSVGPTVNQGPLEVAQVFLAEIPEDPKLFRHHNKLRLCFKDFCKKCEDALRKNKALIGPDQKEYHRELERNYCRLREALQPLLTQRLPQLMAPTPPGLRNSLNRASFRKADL
UniProt Q9BY27: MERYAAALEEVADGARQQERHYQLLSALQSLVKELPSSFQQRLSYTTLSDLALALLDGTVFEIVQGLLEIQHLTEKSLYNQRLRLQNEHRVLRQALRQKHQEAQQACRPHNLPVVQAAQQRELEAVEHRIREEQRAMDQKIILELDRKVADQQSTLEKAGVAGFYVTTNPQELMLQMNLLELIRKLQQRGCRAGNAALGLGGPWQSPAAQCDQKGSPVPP

Key:
Experiment in all cases: log2 fold change, soluble protein after heating vs DMSO (PISA); higher = thermal stabilisation; K562 lysate, 10 uM; active = over 0.2 and 3.5 SD of the protein, either way, in both replicates (recomputed)
[1] = compound: CS(=O)(=O)N1CCN(Cc2cc3nc(-c4cccc5[nH]ncc45)nc(N4CCOCC4)c3s2)CC1 [pictilisib]
How it was run: (§1)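 Dounce homogenisation of K562 pellets in PBS pH 7.4 with 1 mM MgCl2 produced a crude extract, used at 1 mg/mL protein. Exposure to 10 μM compound lasted 30 min, and aliquots were then heated for 3 min across 48°C-58°C, pooled and brought to 0.5% NP-40 at 4°C. The supernatant after 21,000xg for 90 min was quantified by TMTpro 16plex LC-MS/MS with channel sums equalised. Duplicate values are given as log-two fold change in thermal stability relative to solvent controls.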

[2] = compound: C[C@H](Nc1ncnc2nc[nH]c12)c1cc2cccc(Cl)c2c(=O)n1-c1ccccc1 [duvelisib]
How it was run: as §1

[3] = compound: Cc1ccc(NC(=O)c2ccc(CN3CC[C@H](N(C)C)C3)c(C(F)(F)F)c2)cc1Nc1nccc(-c2cncnc2)n1 [bafetinib]
How it was run: as §1

[4] = compound: Cc1nc(Nc2ncc(C(=O)Nc3c(C)cccc3Cl)s2)cc(N2CCN(CCO)CC2)n1 [dasatinib]
How it was run: as §1

[5] = compound: Cn1cc(-c2ccc3c(c2)CCN3C(=O)Cc2cccc(C(F)(F)F)c2)c2c(N)ncnc21
How it was run: as §1

[6] = compound: C[C@@H](Oc1cc(-c2cnn(C3CCNCC3)c2)cnc1N)c1c(Cl)ccc(F)c1Cl [crizotinib]
How it was run: as §1

[7] = compound: C[C@H](C1=CC=C(C=C1)C(=O)NC2=C3C=CNC3=NC=C2)N
How it was run: as §1

[8] = compound: Cc1cc(Nc2cc(CN3CCOCC3)c3nc(C)c(Cc4ccc(Cl)cc4F)n3n2)n[nH]1 [gandotinib]
How it was run: as §1

[9] = compound: Cc1ccc(-n2nc(C(C)(C)C)cc2NC(=O)Nc2ccc(OCCN3CCOCC3)c3ccccc23)cc1 [doramapimod]
How it was run: as §1

[10] = compound: Cc1cccc(CC(=O)N2CCc3c2ccc(-c2cn(C)c4ncnc(N)c24)c3F)n1
How it was run: as §1

[11] = compound: Cc1cn(-c2cc(NC(=O)c3ccc(C)c(Nc4nccc(-c5cccnc5)n4)c3)cc(C(F)(F)F)c2)cn1 [nilotinib]
How it was run: as §1

[12] = compound: Cc1nc(Nc2n[nH]c3c2CN(C(=O)N[C@H](CN(C)C)c2ccccc2)C3(C)C)c2sccc2n1
How it was run: as §1

[13] = compound: Cc1ncc(-c2ccnc(Nc3ccc(S(C)(=O)=O)cc3)n2)n1C(C)C
How it was run: as §1

[14] = compound: Cn1cc(CNCC2CCN(c3ncc(C(=O)NO)cn3)CC2)c2ccccc21 [quisinostat]
How it was run: as §1

[15] = compound: Cn1cncc1[C@@](N)(c1ccc(Cl)cc1)c1ccc2c(c1)c(-c1cccc(Cl)c1)cc(=O)n2C [tipifarnib]
How it was run: as §1

[16] = compound: NC(=O)Nc1cc(-c2cccc(F)c2)sc1C(=O)N[C@H]1CCCNC1
How it was run: as §1

[17] = compound: Cc1cc(Nc2cc(N3CCN(C)CC3)nc(Sc3ccc(NC(=O)C4CC4)cc3)n2)n[nH]1 [tozasertib]
How it was run: as §1

[18] = compound: NC1(c2ccc(-c3nc4ccn5c(=O)[nH]nc5c4cc3-c3ccccc3)cc2)CCC1
How it was run: as §1

[19] = compound: CS(=O)(=O)CCNCc1ccc(-c2ccc3ncnc(Nc4ccc(OCc5cccc(F)c5)c(Cl)c4)c3c2)o1 [lapatinib]
How it was run: as §1

[20] = compound: NC(=O)c1cnc(N[C@@H]2CCCC[C@@H]2N)nc1Nc1cccc(-n2nccn2)c1
How it was run: as §1

Measured: log2 fold change

DLG5 (UniProt Q8TDM6)
inactive: [1] 0.029 | [2] 0.149 | [3] 0.038 | [4] 0.024 | [5] -0.052

DNAJC16 (UniProt Q9Y2G8)
inactive: [1] -0.117 | [6] -0.168 | [7] 0.203 | [2] -0.109 | [8] -0.072 | [9] -0.153 | [3] 0.059 | [10] -0.091 | [11] 0.05 | [12] 0.024 | [4] -0.059 | [13] 0.079 | [5] -0.137 | [14] -0.02 | [15] -0.001 | [16] 0.014

DOT1L isoform 1 (UniProt Q8TEK3)
inactive: [6] 0.211 | [2] -0.102 | [17] -0.022 | [9] 0.167 | [4] -0.091 | [5] -0.051 | [14] 0.057 | [16] 0.118 | [18] 0.04

DGLUCY isoform 2 (UniProt Q7Z3D6)
inactive: [6] -0.117 | [9] 0.16 | [14] -0.02 | [16] 0.06

DMAC1 (UniProt Q96GE9)
inactive: [7] 0.176 | [8] -0.122 | [10] -0.026

DGKH (UniProt Q86XP1)
inactive: [1] -0.034 | [6] 0 | [7] -0.027 | [2] 0.109 | [8] -0.032 | [17] -0.107 | [9] 0.247 | [3] 0.058 | [10] 0.002 | [11] 0.127 | [12] 0 | [4] 0.014 | [13] 0.215 | [5] 0.122 | [14] -0.08 | [15] -0.082 | [16] 0.049 | [18] 0.027

DLC1 (UniProt Q96QB1)
inactive: [1] 0.008 | [6] -0.115 | [17] -0.215 | [9] -0.162 | [3] -0.159 | [14] -0.193 | [16] -0.139

DNAJC14 (UniProt Q6Y2X3)
inactive: [2] -0.082 | [17] -0.023 | [4] 0.148 | [5] -0.03

DLX2 (UniProt Q07687)
inactive: [18] -0.092

DHRSX (UniProt Q8N5I4)
inactive: [2] 0.162 | [4] 0.007 | [5] -0.056 | [18] -0.083

DLG1 isoform 3 (UniProt Q12959)
inactive: [1] 0.005 | [3] -0.003

DNAJA3 isoform 2 (UniProt Q96EY1)
inactive: [1] -0.018 | [2] -0.122 | [17] -0.035 | [3] -0.022 | [4] 0.101 | [5] -0.124 | [18] -0.026

DOCK5 (UniProt Q9H7D0)
inactive: [19] -0.36 | [20] -0.147

DMD isoform 14 (UniProt P11532)
inactive: [1] -0.087 | [6] 0.041 | [7] 0.204 | [2] -0.017 | [8] 0.194 | [9] -0.043 | [3] 0.062 | [10] 0.313 | [4] 0.182 | [5] 0.359 | [14] -0.024 | [16] -0.009

DHX34 (UniProt Q14147)
inactive: [1] 0.124 | [6] -0.067 | [7] -0.012 | [2] 0.023 | [8] -0.287 | [17] 0.012 | [9] -0.004 | [3] -0.116 | [10] 0.048 | [11] 0.042 | [12] 0.066 | [4] -0.165 | [13] 0.036 | [5] 0.006 | [14] -0.062 | [15] 0.027 | [16] 0.075 | [18] -0.054

DNAJB2 (UniProt P25686)
inactive: [1] -0.103 | [6] -0.047 | [7] -0.053 | [2] -0.101 | [8] 0.069 | [17] -0.002 | [9] -0.171 | [3] 0.035 | [10] -0.03 | [11] 0.08 | [12] -0.096 | [4] 0.134 | [13] -0.279 | [5] 0.173 | [14] 0.11 | [15] 0.06 | [16] -0.03 | [18] -0.259

DIPK1A (UniProt Q5T7M9)
inactive: [17] 0.071

DOCK11, A0A0J9YW64
inactive: [1] -0.164 | [7] 0.032 | [8] -0.251 | [3] -0.151 | [10] -0.191 | [11] -0.005 | [12] -0.019 | [13] -0.061 | [15] 0.088

DHPS (UniProt M0R1T2)
inactive: [7] -0.263 | [8] 0.333 | [10] 0.36 | [11] -0.175 | [12] -0.489 | [13] -0.277 | [15] -0.024

DNMT1 (UniProt P26358)
inactive: [1] 0.08 | [6] 0.019 | [7] 0.036 | [8] 0.022 | [9] 0.074 | [3] -0.017 | [10] -0.047 | [11] 0.049 | [12] 0.039 | [13] -0.047 | [14] -0.011 | [15] -0.115 | [16] -0.103

DNAJB14 (UniProt H7C494)
inactive: [6] 0.116 | [7] -0.02 | [8] -0.082 | [9] -0.017 | [10] 0.03 | [14] 0.033 | [16] -0.043

DGKE (UniProt P52429)
inactive: [7] -0.139 | [2] -0.027 | [8] 0.18 | [17] -0.301 | [10] 0.178 | [4] 0.118 | [5] 0.039 | [18] 0.046

DMBT1 isoform 6 (UniProt Q9UGM3)
inactive: [7] 0.158 | [8] -0.554 | [17] 0.648 | [10] 0.006 | [11] -0.03 | [12] 0.116 | [13] -0.01 | [15] -0.334

DNAH12 (UniProt Q6ZR08)
inactive: [1] -0.06 | [7] -0.057 | [2] -0.247 | [8] 0.04 | [3] -0.361 | [10] 0.344 | [4] 0.369 | [5] -0.184

DOP1A (UniProt Q5JWR5)
inactive: [1] 0.017 | [6] 0.006 | [2] -0.141 | [17] 0.022 | [9] -0.07 | [3] -0.065 | [11] 0.064 | [12] -0.01 | [4] -0.337 | [13] 0.016 | [5] 0.147 | [14] 0.034 | [15] -0.036 | [16] -0.034

Two consecutive entries already listed:
DMBT1 isoform 6 (UniProt Q9UGM3)
inactive: [7] 0.158 | [8] -0.554 | [17] 0.648 | [10] 0.006 | [11] -0.03 | [12] 0.116 | [13] -0.01 | [15] -0.334

DNAH12 (UniProt Q6ZR08)
inactive: [1] -0.06 | [7] -0.057 | [2] -0.247 | [8] 0.04 | [3] -0.361 | [10] 0.344 | [4] 0.369 | [5] -0.184

Next results:

DOCK6 (UniProt Q96HP0)
inactive: [2] -0.144 | [4] 0.121 | [5] -0.099 | [18] -0.026

DNMT3B (UniProt Q9UBC3)
inactive: [17] 0.262 | [11] 0.045 | [12] -0.046 | [13] -0.015 | [15] 0.084

DGCR6L (UniProt Q9BY27)
inactive: [6] -0.002 | [7] -0.211 | [8] 0.094 | [9] -0.121 | [10] 0.066 | [11] 0.029 | [12] -0.037 | [13] 0.132 | [14] -0.091 | [15] 0.066 | [16] 0.127
